In PubChem BioAssay AID1347076 (National Center for Advancing Translational Sciences (NCATS), 2019):
Out of some 400,000 compounds screened, about 13,000 (3.2%) were called active. The inconclusive results got no clear call from the source; some entries with a clear call stand among them for comparison. The call rests on the fitted dose curve; in most records, active means well fitted cell-killing curve with a large enough effect; inconclusive means small, poorly fitted or top-dose-only effect, or effect the other way; inactive means flat fitted curve, though single readings scatter. A potency beside an inconclusive call is a rough fit, not a confirmed value.

assay: qHTS assay for MDR1-selective chemotherapeutics: Primary screen using the drug-selected MDR subline cells KB-V1; conditions: KB-V1 MDR cells viability, CellTiter-Glo, 72 h; activity change, negative = cytotoxicity: at 46.1 µM (top of the series); further: nearly all actives have a fitted effect of over 60% in size
Method in brief: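 Cytotoxicity toward P-gp-expressing KB-V1 cells was determined as loss of CellTiter-Glo luminescence after 72 h at 37 degrees C. Compounds were tested in quantitative HTS format across a concentration range, with curves fitted to normalized data.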
On the % scale 0 is the no-effect control and ±100 the full control effect; potency means the concentration at half of the fitted maximal effect.

Compound | Potency | activity change, negative = cytotoxicity
O=C(NCc1ccco1)c1cccc(-c2nnc(-c3ccccc3)o2)c1 | inconclusive: 20.6 µM [cytotoxic, single point] | –
Fc1cccc(Cl)c1-c1nnc2ccc3ccccc3n12 | inconclusive: 23.1 µM [cytotoxic, single point] | –
CC(C)(C)n1ncc2c(=O)n(Cc3ccc(Cl)cc3Cl)cnc21 | inconclusive: 14.6 µM [cytotoxic, partial curve, poor fit] | –
CCn1c(C)cc(O)c(C(=O)Nc2cccc(Cl)c2)c1=O | inactive | –
CCc1ccccc1NC(=O)c1ccc2c(O)c(S(=O)(=O)c3ccccc3)c(=O)[nH]c2c1 | inactive | –
O=C(O)CCCCCN1C(=O)/C(=C\c2ccncc2)SC1=S | inconclusive: 29.1 µM [cytotoxic, single point] | –
O=C(Nc1ccc(NC(=O)C2CCCCC2)cn1)c1ccco1 | inactive | –
CC(=O)C1=C(c2ccccc2)OC(N)=C(C#N)C1c1ccccc1C (stereo not drawn) | inactive | –
COc1ccccc1CNC(=O)c1oc2ccc(S(=O)(=O)N3CCCCC3)cc2c1C | inactive | –
COc1cc(O)sc1C=Nc1ccc(Cl)cc1Cl | active: 20.6 µM | –
O=C(CCl)c1cc2c3c(c1)CC(=O)N3CCC2 | inactive | –
COc1ccc(-c2csc(N3CCN(C(=O)c4ccccc4)CC3)n2)cc1 | active: 16.4 µM | –
Cc1ccc(S(=O)(=O)N2CCN(C(=O)CSc3ccc(F)cc3)CC2)cc1 | inconclusive: 11.6 µM [cytotoxic, partial curve, poor fit] | –
Cc1cccc(C)c1NC(=O)COC(=O)c1ccccc1[N+](=O)[O-] | inconclusive: 29.1 µM [rising, single point] | –
Cc1ccc(CNC(=O)c2ccc(Cn3c(=O)c4ccccc4n(CC(=O)Nc4ccc(C)cc4C)c3=O)cc2)cc1 | inactive | –
N#Cc1c(NC(NC(=O)c2ccco2)C(=O)c2ccccc2)sc2c1CCCC2 (stereo not drawn) | inconclusive: 29.1 µM [cytotoxic, single point] | –
CCCn1c(SCC(=O)NC2CCCC2)nc2c1c(=O)n(C)c(=O)n2C | inactive | –
CC(C)OCCCNc1nc(Cl)nc2c1cnn2C | inconclusive: 11.6 µM [cytotoxic, partial curve, poor fit] | –
O=C(Nc1ccccc1-c1cn2c(CN3CCNCC3)csc2n1)c1cnc2ccccc2n1 | inconclusive: 29.1 µM [cytotoxic, single point] | –
COC(=O)c1cc(=O)n(Cc2cccs2)c(=Nc2ccccc2)s1 | inconclusive: 20.6 µM [cytotoxic, single point] | –
N#Cc1c(N2CCCCC2)nc(N)c2c(N)nc3c(c12)CC(c1ccccc1)O3 (stereo not drawn) | inconclusive: 31.6 µM [cytotoxic, single point] | –
COc1ccccc1N1CCN(C(=O)c2oc3c(c2C)C(=O)CC(C)(C)C3)CC1 | inconclusive: 0.206 µM [cytotoxic, full curve, poor fit] | –
COc1cc(NC(=O)c2cc(-c3cccs3)on2)cc(OC)c1OC | active: 6.51 µM | –
O=C(CCC(=O)N1CCN(c2ccccc2)CC1)Nc1nnc(C2CCCCC2)s1 | inactive | –

Compound | Potency | activity change, negative = cytotoxicity
COc1cccc(-c2nn(Cc3ccccc3)cc2CO)c1 | inactive | –
CCCCc1cc(=O)oc2cc(C)cc(OCC(=O)NC(Cc3ccc(Cl)cc3)C(=O)O)c12 (stereo not drawn) | inactive | –
CC(Sc1nn(-c2ccc(F)cc2)c(=S)s1)C(=O)c1c(N)n(C)c(=O)n(C)c1=O (stereo not drawn) | active: 6.51 µM | –
COc1cc(CC(=O)Nc2nc(-c3ccc(F)c(F)c3)cs2)cc(OC)c1OC | inconclusive: 7.31 µM [cytotoxic, partial curve] | –
CCCSc1nc2c(c(=O)[nH]c(=O)n2C)n1CC(O)COc1ccccc1 (stereo not drawn) | inconclusive: 29.1 µM [cytotoxic, single point] | –
COc1ccc(NC(=O)c2cc(=O)[nH]c3ccccc23)cc1S(=O)(=O)N1CCOCC1 | inactive | –
CN(CC(=O)Nc1cccc(F)c1)CC(=O)Nc1cccc(S(=O)(=O)N2CCCCCC2)c1 | active: 18.4 µM | –
CCOc1ccccc1NC(=O)C(=O)NCCc1sc(-c2cccc(F)c2)nc1C | inactive | –
CCOC(=O)N1CCN(S(=O)(=O)c2ccc(OC)c(Cl)c2Cl)CC1 | inactive | –
Cc1nn(Cc2ccc(F)cc2)c2sc(C(=O)Nc3ccc(N4CCOCC4)cc3N3CCOCC3)cc12 | inconclusive: 1.84 µM [cytotoxic, partial curve, poor fit] | –
CC1(C(=O)N/N=C/c2ccc([N+](=O)[O-])o2)CC1(Br)Br (stereo not drawn) | active: 18.4 µM | –
Cc1noc(C)c1CN(C(=S)NC1CC2CCC1C2)c1ccccc1 (stereo not drawn) | inconclusive: 9.2 µM [cytotoxic, partial curve] | –
O=S1(=O)CC(N2CC=CC2)CN1Cc1cn(Cc2cccc(C(F)(F)F)c2)nn1 (stereo not drawn) | inactive | –
CCOc1ccc(NC(=O)NCc2c(-n3cccc3)sc3c2CCCC3)cc1 | inactive | –
CCOc1ccc(NC(=O)C2CCCN(S(=O)(=O)c3cccc4nonc34)C2)cc1 (stereo not drawn) | inactive | –
C=CCn1c(C)cc(C(=O)Cn2c(C(C)O)nc3ccccc32)c1C (stereo not drawn) | inconclusive: 25.9 µM [cytotoxic, partial curve, poor fit] | –
[O-][n+]1ccc(OCc2ccccc2)cc1 | inconclusive: 23.1 µM [rising, single point] | –
CCOCCn1c(CN2CCc3ccccc3C2)nc2c1c(=O)n(C)c(=O)n2C | inconclusive: 7.31 µM [cytotoxic, partial curve] | –
CCCNC(=O)C(Cc1ccccc1)NS(=O)(=O)c1ccc2c(c1)CCC(=O)N2 (stereo not drawn) | – | inconclusive: 47%
NC(=O)c1nsc(C(=O)N(c2cccc(F)c2)C(C(=O)NCc2ccccc2)c2ccc(O)cc2)c1N (stereo not drawn) | inactive | –
CCOc1ccccc1N1CCN(C(=O)C2CSC3(C)CCC(=O)N23)CC1 (stereo not drawn) | active: 18.4 µM | –
NC(CCc1ccccc1)c1csc(NC(=O)Nc2cccc(Cl)c2)n1 (stereo not drawn) | inactive | –
COc1ccc(-c2[nH]c3ccccc3c2SCCNC(=O)c2cc(OC)c(OC)c(OC)c2)cc1 | inconclusive: 23.1 µM [cytotoxic, single point] | –
COC(=O)C1=CN(Cc2ccc(OC)cc2)C=C(C(=O)OC)C1c1ccsc1 | inconclusive: 5.8 µM [cytotoxic, full curve] | –

In the list so far, these have a COOH group:
Compound | Potency | activity change, negative = cytotoxicity
O=C(O)CCCCCN1C(=O)/C(=C\c2ccncc2)SC1=S | inconclusive: 29.1 µM [cytotoxic, single point] | –
CCCCc1cc(=O)oc2cc(C)cc(OCC(=O)NC(Cc3ccc(Cl)cc3)C(=O)O)c12 (stereo not drawn) | inactive | –
